The numbers were not newly measured in patent publication US20230372302A1 (priority 2019, published 2023), which cites them from elsewhere.

For this data set the following is noted: human, in vivo; cited from earlier work.

`COc1cc2nc(N3CCN(C(=O)C4COc5ccccc5O4)CC3)nc(N)c2cc1OC` (stereo not shown) [DOXAZOSIN, 1-(4-amino-6,7-dimethoxy-2-quinazolinyl)-4-(1,4benzodioxan-2-ylcarbonyl) piperazine methanesulfonate]: the dizziness is given as 15-19%.
